# Some of the results follow.
# B1: GS7807G-bfa-506-18-506 (Bacteroides fragilis) (protein)
# chain: ASCDKFDEINTDPDATTKVTSSLLATGLLLDITSSSASKSFIYDELLAKQMAWGESMEDYQYNVFGRSGFGGYTTLINAQKMVESVSDDNVNAYDGLAHFIKAYKIFYMSMEMGDLPYEEALQGELGLVRPKYNTQKEVMNFILSDLETAYELFSTAKDFDGDPILGGSISKWKKATTAFQLKVLMHLSKKESDADLKVKERFARIVASGSLMESNEDNLQMKYADKANTVYPFHNTNTKHAGYAMLSTMLIDKFKATGDIRMFYYAKPAKAKLNEGVTADSWDAYIGTDPSLPFEQIEKAYATEQYSGFNARYTDYPSGEPVVRLGYAEQNFILAEAAVRGWISGDASAYYKKAIRAHMEFIASNTPDEEVYHHGHPITEEAIAAFLETPAIQLSGEKEEDIEKILTQRYLASFMQHPYDVYYDYRRTGYPVLPINPATNRNTMNDRLPMRWMYPKSESDYNLEHQNEALERQFGGVDDVNKLMWILQ
# Legend:
# Assay in all cases: glycan array binding signal (z-score within array); higher = stronger binding
# Conditions in all cases: glycan notation: IUPAC condensed, linker removed
# [1] = molecular target: Gal(b1-3)GlcNAc(b1-2)Man(a1-3)[Gal(b1-3)GlcNAc(b1-2)Man(a1-6)]Man(b1-4)GlcNAc(b1-4)[Fuc(a1-6)]GlcNAc
# Outline: (§1)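 Glycan array binding is given as a within-array Z-score, which can be read as non-binding when negative. The arrays, 3228 of them, came from the Consortium for Functional Glycomics database and were retained only where the protein sequence was available. Z-scores were averaged across arrays of the same protein sequence at different concentrations or buffers and across linkers.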
# [2] = molecular target: Gal(b1-3)GlcNAc(b1-2)Man(a1-3)[GlcNAc(b1-4)][Gal(b1-3)GlcNAc(b1-2)Man(a1-6)]Man(b1-4)GlcNAc(b1-4)GlcNAc
# Outline: as §1
# [3] = molecular target: Gal(b1-3)GlcNAc(b1-2)[Gal(b1-3)GlcNAc(b1-6)]Man(a1-6)[Gal(b1-3)GlcNAc(b1-2)Man(a1-3)]Man(b1-4)GlcNAc(b1-4)GlcNAc
# Outline: as §1
# [4] = molecular target: Gal(b1-3)GlcNAc(b1-3)Gal(b1-3)GlcNAc
# Outline: as §1
# [5] = molecular target: Gal(b1-3)GlcNAc(b1-3)Gal(b1-4)Glc
# Outline: as §1
# [6] = molecular target: Gal(b1-3)GlcNAc(b1-3)Gal(b1-4)GlcNAc
# Outline: as §1
# [7] = molecular target: Gal(b1-3)GlcNAc(b1-3)Gal(b1-4)GlcNAc(b1-2)Man(a1-3)[Gal(b1-3)GlcNAc(b1-3)Gal(b1-4)GlcNAc(b1-2)Man(a1-6)]Man(b1-4)GlcNAc(b1-4)GlcNAc
# Outline: as §1
# [8] = molecular target: Gal(b1-3)GlcNAc(b1-3)Gal(b1-4)GlcNAc(b1-2)[Gal(b1-3)GlcNAc(b1-3)Gal(b1-4)GlcNAc(b1-6)]Man(a1-6)[Gal(b1-3)GlcNAc(b1-3)Gal(b1-4)GlcNAc(b1-2)Man(a1-3)]Man(b1-4)GlcNAc(b1-4)[Fuc(a1-6)]GlcNAc
# Outline: as §1
# [9] = molecular target: Gal(b1-3)GlcNAc(b1-3)Gal(b1-4)GlcNAc(b1-3)Gal(b1-4)GlcNAc(b1-2)[Gal(b1-3)GlcNAc(b1-3)Gal(b1-4)GlcNAc(b1-3)Gal(b1-4)GlcNAc(b1-6)]Man(a1-6)[Gal(b1-3)GlcNAc(b1-3)Gal(b1-4)GlcNAc(b1-3)Gal(b1-4)GlcNAc(b1-2)Man(a1-3)]Man(b1-4)GlcNAc(b1-4)[Fuc(a1-6)]GlcNAc
# Outline: as §1
# [10] = molecular target: Gal(b1-3)GlcNAc(b1-3)Gal(b1-4)GlcNAc(b1-6)[Gal(b1-3)GlcNAc(b1-3)]Gal(b1-4)Glc
# Outline: as §1
# [11] = molecular target: Gal(b1-3)GlcNAc(b1-3)Gal(b1-4)[Fuc(a1-3)]GlcNAc
# Outline: as §1
# [12] = molecular target: Gal(b1-3)GlcNAc(b1-3)Gal(b1-4)[Fuc(a1-3)]GlcNAc(b1-6)[Gal(b1-3)GlcNAc(b1-3)]Gal(b1-4)Glc
# Outline: as §1
# [13] = molecular target: Gal(b1-3)GlcNAc(b1-3)GalNAc
# Outline: as §1
# [14] = molecular target: Gal(b1-3)GlcNAc(b1-6)Gal(b1-4)GlcNAc
# Outline: as §1
# [15] = molecular target: Gal(b1-3)GlcNAc(b1-6)GalNAc
# Outline: as §1
# [16] = molecular target: Gal(b1-3)GlcNAc(b1-6)[Gal(b1-3)]GalNAc
# Outline: as §1
# Gal(b1-3)GlcNAc6S = molecular target: Gal(b1-3)GlcNAc6S
# Outline: as §1
# [17] = molecular target: Gal(b1-3)[Fuc(a1-4)]GlcNAc
# Outline: as §1
# [18] = molecular target: Gal(b1-3)[Fuc(a1-4)]GlcNAc(b1-2)Man
# Outline: as §1
# [19] = molecular target: Gal(b1-3)[Fuc(a1-4)]GlcNAc(b1-2)Man(a1-3)[Gal(b1-3)[Fuc(a1-4)]GlcNAc(b1-2)Man(a1-6)]Man(b1-4)GlcNAc(b1-4)[Fuc(a1-6)]GlcNAc
# Outline: as §1
# [20] = molecular target: Gal(b1-3)[Fuc(a1-4)]GlcNAc(b1-3)Gal(b1-3)[Fuc(a1-4)]GlcNAc
# Outline: as §1
# [21] = molecular target: Gal(b1-3)[Fuc(a1-4)]GlcNAc(b1-3)Gal(b1-4)[Fuc(a1-3)]GlcNAc
# Outline: as §1
# [22] = molecular target: Gal(b1-3)[Fuc(a1-4)]GlcNAc(b1-6)GalNAc
# Outline: as §1
# [23] = molecular target: Gal(b1-3)[GlcNAc(b1-6)]GalNAc
# Outline: as §1
# [24] = molecular target: Gal(b1-3)[Neu5Ac(a2-6)]GalNAc
# Outline: as §1
# [25] = molecular target: Gal(b1-3)[Neu5Ac(a2-6)]GlcNAc(b1-4)Gal(b1-4)Glc
# Outline: as §1
# [26] = molecular target: Gal(b1-3)[Neu5Ac(b2-6)]GalNAc
# Outline: as §1
# Gal(b1-4)Gal = molecular target: Gal(b1-4)Gal
# Outline: as §1
# [27] = molecular target: Gal(b1-4)GalNAc(a1-3)[Fuc(a1-2)]Gal(b1-4)GlcNAc
# Outline: as §1
# [28] = molecular target: Gal(b1-4)GalNAc(b1-3)[Fuc(a1-2)]Gal(b1-4)GlcNAc
# Outline: as §1
# Gal(b1-4)Glc = molecular target: Gal(b1-4)Glc
# Outline: as §1
# Gal(b1-4)Glc6S = molecular target: Gal(b1-4)Glc6S
# Outline: as §1
# Gal(b1-4)GlcNAc = molecular target: Gal(b1-4)GlcNAc
# Outline: as §1
# [29] = molecular target: Gal(b1-4)GlcNAc(a1-6)Gal(b1-4)GlcNAc
# Outline: as §1
# Gal(b1-4)GlcNAc(b1-2)Man = molecular target: Gal(b1-4)GlcNAc(b1-2)Man
# Outline: as §1
# [30] = molecular target: Gal(b1-4)GlcNAc(b1-2)Man(a1-3)Man(b1-4)GlcNAc(b1-4)GlcNAc
# Outline: as §1
# [31] = molecular target: Gal(b1-4)GlcNAc(b1-2)Man(a1-3)[Gal(b1-4)GlcNAc(b1-2)Man(a1-6)]Man(b1-4)GlcNAc(b1-4)GlcNAc
# Outline: as §1
binder,measurement,setting,value
B1,glycan array binding signal (z-score),[1],2.73
same,glycan array binding signal (z-score),[2],1.08
same,glycan array binding signal (z-score),[3],0.847
same,glycan array binding signal (z-score),[4],-0.195
same,glycan array binding signal (z-score),[5],-0.106
same,glycan array binding signal (z-score),[6],-0.493
same,glycan array binding signal (z-score),[7],0.562
same,glycan array binding signal (z-score),[8],0.928
same,glycan array binding signal (z-score),[9],2.5
same,glycan array binding signal (z-score),[10],0.625
same,glycan array binding signal (z-score),[11],-0.23
same,glycan array binding signal (z-score),[12],1.28
same,glycan array binding signal (z-score),[13],0.293
same,glycan array binding signal (z-score),[14],-0.013
same,glycan array binding signal (z-score),[15],-0.165
same,glycan array binding signal (z-score),[16],-0.028
same,glycan array binding signal (z-score),Gal(b1-3)GlcNAc6S,0.702
same,glycan array binding signal (z-score),[17],-0.673
same,glycan array binding signal (z-score),[18],0.873
same,glycan array binding signal (z-score),[19],1.62
same,glycan array binding signal (z-score),[20],-0.731
same,glycan array binding signal (z-score),[21],-0.839
same,glycan array binding signal (z-score),[22],0.119
same,glycan array binding signal (z-score),[23],-0.612
same,glycan array binding signal (z-score),[24],-0.517
same,glycan array binding signal (z-score),[25],-0.306
same,glycan array binding signal (z-score),[26],-0.154
same,glycan array binding signal (z-score),Gal(b1-4)Gal,-0.523
same,glycan array binding signal (z-score),[27],-0.448
same,glycan array binding signal (z-score),[28],0.319
same,glycan array binding signal (z-score),Gal(b1-4)Glc,0.007
same,glycan array binding signal (z-score),Gal(b1-4)Glc6S,-0.647
same,glycan array binding signal (z-score),Gal(b1-4)GlcNAc,-0.191
same,glycan array binding signal (z-score),[29],-0.507
same,glycan array binding signal (z-score),Gal(b1-4)GlcNAc(b1-2)Man,0.722
same,glycan array binding signal (z-score),[30],1.48
same,glycan array binding signal (z-score),[31],-0.602

# At a glance, some entries already given.
binder,measurement,setting,value
B1,glycan array binding signal (z-score),[17],-0.673
same,glycan array binding signal (z-score),[18],0.873

# — the supplement of paper PMC8728848
